# Data as given in the supplement of paper PMC6411743.
# ± gives the standard deviation of the averaged measurements. This is a selection; strong and weak results do not stand in their true shares.
# Legend:
# Assay in all cases: NP40-soluble protein abundance relative to vehicle (solubility fold change) (ratio); higher = more soluble protein in presence of AMP-PNP
# ANKMY2 = target: T1, ANKMY2 (UniProt Q8IV38)
# T1 sequence (whole entry): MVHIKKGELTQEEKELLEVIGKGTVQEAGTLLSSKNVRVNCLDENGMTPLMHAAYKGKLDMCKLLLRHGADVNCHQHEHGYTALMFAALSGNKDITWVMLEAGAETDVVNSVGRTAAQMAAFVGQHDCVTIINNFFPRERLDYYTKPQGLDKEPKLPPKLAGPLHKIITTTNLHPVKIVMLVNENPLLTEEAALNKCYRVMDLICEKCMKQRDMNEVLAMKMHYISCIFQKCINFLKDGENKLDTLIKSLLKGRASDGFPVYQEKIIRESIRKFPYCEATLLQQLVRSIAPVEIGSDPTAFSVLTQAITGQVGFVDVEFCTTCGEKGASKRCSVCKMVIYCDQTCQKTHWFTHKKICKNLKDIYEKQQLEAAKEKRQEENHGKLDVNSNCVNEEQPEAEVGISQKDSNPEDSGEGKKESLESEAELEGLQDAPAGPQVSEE
# Summary of the method: (§1)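 Jurkat crude lysate (Dounce-homogenised) was treated with eight concentrations from 0.1 to 10 mM for 10 min at room temperature, then 3 min at 37 °C. It was solubilised with 0.8% NP40 and benzonase (60 min, 4 °C) and ultracentrifuged, and the supernatant was TMT-labelled for LC-MS/MS. Intensities were vsn-normalised, and the value is the fold change against the NP40-processed vehicle per replicate, from three independent experiments.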
# CBR4 = target: T2, CBR4 (UniProt Q8N4T8)
# T2 sequence (whole entry): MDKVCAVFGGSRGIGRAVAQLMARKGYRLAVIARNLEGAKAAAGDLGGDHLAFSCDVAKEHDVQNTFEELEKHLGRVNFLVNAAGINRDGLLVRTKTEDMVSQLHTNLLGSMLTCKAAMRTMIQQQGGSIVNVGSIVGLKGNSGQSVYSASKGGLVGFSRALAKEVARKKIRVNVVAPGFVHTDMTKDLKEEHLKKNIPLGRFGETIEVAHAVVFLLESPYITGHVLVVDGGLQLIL
# Summary of the method: as §1
# ISCA2 = target: T3, ISCA2 (UniProt Q86U28)
# T3 sequence (whole entry): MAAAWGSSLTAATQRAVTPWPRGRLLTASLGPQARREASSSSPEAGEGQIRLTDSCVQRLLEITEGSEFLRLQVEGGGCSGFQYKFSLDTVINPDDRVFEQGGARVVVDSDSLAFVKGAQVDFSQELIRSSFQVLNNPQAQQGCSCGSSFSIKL
# Summary of the method: as §1
# KIAA0319L = target: T4, KIAA0319L (UniProt Q8IZA0)
# T4 sequence (whole entry): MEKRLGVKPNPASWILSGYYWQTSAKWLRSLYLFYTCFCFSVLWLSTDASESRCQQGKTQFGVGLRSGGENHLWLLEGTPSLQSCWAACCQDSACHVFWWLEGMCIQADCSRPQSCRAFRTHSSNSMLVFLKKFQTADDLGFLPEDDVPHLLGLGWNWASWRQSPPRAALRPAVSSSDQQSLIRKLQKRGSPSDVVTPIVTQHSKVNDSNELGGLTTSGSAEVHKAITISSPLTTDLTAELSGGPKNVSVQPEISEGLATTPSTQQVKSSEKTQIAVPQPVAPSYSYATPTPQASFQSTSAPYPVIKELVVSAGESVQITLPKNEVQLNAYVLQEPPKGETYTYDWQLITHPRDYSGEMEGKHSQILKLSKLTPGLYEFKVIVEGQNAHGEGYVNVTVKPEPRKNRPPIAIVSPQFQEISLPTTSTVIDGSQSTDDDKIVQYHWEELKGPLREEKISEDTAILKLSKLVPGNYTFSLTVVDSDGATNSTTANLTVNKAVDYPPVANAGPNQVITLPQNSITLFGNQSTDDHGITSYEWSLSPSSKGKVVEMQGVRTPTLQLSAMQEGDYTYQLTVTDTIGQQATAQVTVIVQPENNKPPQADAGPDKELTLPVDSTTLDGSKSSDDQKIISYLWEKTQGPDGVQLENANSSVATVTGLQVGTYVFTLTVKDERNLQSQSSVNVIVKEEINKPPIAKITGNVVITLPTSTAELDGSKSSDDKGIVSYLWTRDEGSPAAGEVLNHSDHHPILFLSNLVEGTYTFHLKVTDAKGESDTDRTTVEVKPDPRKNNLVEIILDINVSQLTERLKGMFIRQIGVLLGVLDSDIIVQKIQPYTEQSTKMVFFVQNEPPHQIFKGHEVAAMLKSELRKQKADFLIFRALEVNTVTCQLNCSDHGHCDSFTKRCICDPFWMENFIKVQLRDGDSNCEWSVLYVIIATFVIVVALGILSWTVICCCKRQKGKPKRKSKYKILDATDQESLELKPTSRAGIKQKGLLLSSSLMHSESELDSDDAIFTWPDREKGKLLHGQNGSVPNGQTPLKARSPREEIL
# Summary of the method: as §1
# LNX2 = target: T5, LNX2 (UniProt Q8N448)
# T5 sequence (whole entry): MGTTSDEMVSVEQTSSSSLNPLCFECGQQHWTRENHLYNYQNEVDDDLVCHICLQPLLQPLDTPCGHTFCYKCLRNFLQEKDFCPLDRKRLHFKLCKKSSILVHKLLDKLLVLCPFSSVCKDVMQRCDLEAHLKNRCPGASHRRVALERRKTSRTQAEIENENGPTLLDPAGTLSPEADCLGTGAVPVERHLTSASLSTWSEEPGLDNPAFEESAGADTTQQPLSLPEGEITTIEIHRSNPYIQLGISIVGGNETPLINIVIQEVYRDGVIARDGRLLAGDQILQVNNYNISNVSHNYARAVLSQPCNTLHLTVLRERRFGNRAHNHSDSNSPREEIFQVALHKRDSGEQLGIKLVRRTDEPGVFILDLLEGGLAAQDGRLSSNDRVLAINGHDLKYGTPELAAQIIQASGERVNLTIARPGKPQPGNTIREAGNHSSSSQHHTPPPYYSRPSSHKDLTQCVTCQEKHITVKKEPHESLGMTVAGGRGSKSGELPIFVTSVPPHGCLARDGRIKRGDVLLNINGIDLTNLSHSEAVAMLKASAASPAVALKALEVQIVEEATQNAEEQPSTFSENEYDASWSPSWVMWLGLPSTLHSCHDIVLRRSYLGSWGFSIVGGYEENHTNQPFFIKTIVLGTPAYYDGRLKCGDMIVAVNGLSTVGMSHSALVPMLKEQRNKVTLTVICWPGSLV
# Summary of the method: as §1
structure (smiles),measurement,setting,value
Nc1ncnc2c1ncn2[C@@H]1O[C@H](COP(=O)(O)OP(=O)(O)NP(=O)(O)O)[C@@H](O)[C@H]1O [adenylyl imidodiphosphate],NP40-soluble protein abundance,ANKMY2; concentration: 1mM,0.994 ± 0.021
same,NP40-soluble protein abundance,ANKMY2; concentration: 2mM,0.972 ± 0.065
same,NP40-soluble protein abundance,ANKMY2; concentration: 4mM,0.945 ± 0.019
same,NP40-soluble protein abundance,ANKMY2; concentration: 6mM,0.938 ± 0.04
same,NP40-soluble protein abundance,ANKMY2; concentration: 8mM,0.905 ± 0.016
same,NP40-soluble protein abundance,ANKMY2; concentration: 10mM,0.914 ± 0.049
same,NP40-soluble protein abundance,CBR4; concentration: 1mM,0.971 ± 0.034
same,NP40-soluble protein abundance,CBR4; concentration: 2mM,0.957 ± 0.041
same,NP40-soluble protein abundance,CBR4; concentration: 4mM,1 ± 0.017
same,NP40-soluble protein abundance,CBR4; concentration: 6mM,1.01 ± 0.065
same,NP40-soluble protein abundance,CBR4; concentration: 8mM,1.02 ± 0.025
same,NP40-soluble protein abundance,CBR4; concentration: 10mM,1.01 ± 0.032
same,NP40-soluble protein abundance,ISCA2; concentration: 1mM,1.02 ± 0.041
same,NP40-soluble protein abundance,ISCA2; concentration: 2mM,1.08 ± 0.073
same,NP40-soluble protein abundance,ISCA2; concentration: 4mM,1.02 ± 0.04
same,NP40-soluble protein abundance,ISCA2; concentration: 6mM,1.01 ± 0.037
same,NP40-soluble protein abundance,ISCA2; concentration: 8mM,0.973 ± 0.036
same,NP40-soluble protein abundance,ISCA2; concentration: 10mM,0.987 ± 0.071
same,NP40-soluble protein abundance,KIAA0319L; concentration: 1mM,1.01 ± 0.014
same,NP40-soluble protein abundance,KIAA0319L; concentration: 2mM,1.03 ± 0.033
same,NP40-soluble protein abundance,KIAA0319L; concentration: 4mM,0.977 ± 0.025
same,NP40-soluble protein abundance,KIAA0319L; concentration: 6mM,0.969 ± 0.034
same,NP40-soluble protein abundance,KIAA0319L; concentration: 8mM,0.976 ± 0.017
same,NP40-soluble protein abundance,KIAA0319L; concentration: 10mM,0.9945 ± 0.0054
same,NP40-soluble protein abundance,LNX2; concentration: 1mM,0.991 ± 0.022
same,NP40-soluble protein abundance,LNX2; concentration: 2mM,0.996 ± 0.024
same,NP40-soluble protein abundance,LNX2; concentration: 4mM,0.983 ± 0.028
same,NP40-soluble protein abundance,LNX2; concentration: 6mM,1 ± 0.017
same,NP40-soluble protein abundance,LNX2; concentration: 8mM,1.01 ± 0.02
same,NP40-soluble protein abundance,LNX2; concentration: 10mM,0.988 ± 0.036

# 8 consecutive entries already listed, for reference:
structure (smiles),measurement,setting,value
Nc1ncnc2c1ncn2[C@@H]1O[C@H](COP(=O)(O)OP(=O)(O)NP(=O)(O)O)[C@@H](O)[C@H]1O [adenylyl imidodiphosphate],NP40-soluble protein abundance,ISCA2; concentration: 10mM,0.987 ± 0.071
same,NP40-soluble protein abundance,KIAA0319L; concentration: 1mM,1.01 ± 0.014
same,NP40-soluble protein abundance,KIAA0319L; concentration: 2mM,1.03 ± 0.033
same,NP40-soluble protein abundance,KIAA0319L; concentration: 4mM,0.977 ± 0.025
same,NP40-soluble protein abundance,KIAA0319L; concentration: 6mM,0.969 ± 0.034
same,NP40-soluble protein abundance,KIAA0319L; concentration: 8mM,0.976 ± 0.017
same,NP40-soluble protein abundance,KIAA0319L; concentration: 10mM,0.9945 ± 0.0054
same,NP40-soluble protein abundance,LNX2; concentration: 1mM,0.991 ± 0.022
